Test results: the supplement of paper PMC10849652
The other results are listed elsewhere or left out.

The chains behind the UniProt entries cited, without tags or fusion partners. Where a name states a change or a piece, a line headed by the entry shows the natural chain unless it says otherwise.
UniProt Q8IYS1: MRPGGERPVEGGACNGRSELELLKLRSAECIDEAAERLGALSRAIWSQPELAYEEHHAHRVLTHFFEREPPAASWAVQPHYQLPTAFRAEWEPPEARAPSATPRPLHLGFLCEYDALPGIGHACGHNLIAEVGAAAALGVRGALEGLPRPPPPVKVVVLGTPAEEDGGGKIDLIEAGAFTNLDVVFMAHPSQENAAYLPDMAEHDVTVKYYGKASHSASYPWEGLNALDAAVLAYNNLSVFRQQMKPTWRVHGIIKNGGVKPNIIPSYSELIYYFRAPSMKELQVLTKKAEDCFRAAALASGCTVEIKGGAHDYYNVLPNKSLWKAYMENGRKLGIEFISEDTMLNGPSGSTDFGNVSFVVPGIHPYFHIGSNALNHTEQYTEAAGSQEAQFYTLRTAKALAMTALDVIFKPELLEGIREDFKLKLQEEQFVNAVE
UniProt P0DPB5: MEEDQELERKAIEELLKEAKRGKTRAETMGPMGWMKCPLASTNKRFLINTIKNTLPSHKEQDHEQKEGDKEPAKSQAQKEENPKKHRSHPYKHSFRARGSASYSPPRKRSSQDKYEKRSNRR
UniProt Q9H2H8: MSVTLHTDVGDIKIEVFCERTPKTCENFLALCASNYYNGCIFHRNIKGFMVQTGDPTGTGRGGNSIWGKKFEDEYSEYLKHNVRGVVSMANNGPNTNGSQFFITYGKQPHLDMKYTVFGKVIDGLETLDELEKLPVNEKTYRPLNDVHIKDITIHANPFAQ
UniProt O75145: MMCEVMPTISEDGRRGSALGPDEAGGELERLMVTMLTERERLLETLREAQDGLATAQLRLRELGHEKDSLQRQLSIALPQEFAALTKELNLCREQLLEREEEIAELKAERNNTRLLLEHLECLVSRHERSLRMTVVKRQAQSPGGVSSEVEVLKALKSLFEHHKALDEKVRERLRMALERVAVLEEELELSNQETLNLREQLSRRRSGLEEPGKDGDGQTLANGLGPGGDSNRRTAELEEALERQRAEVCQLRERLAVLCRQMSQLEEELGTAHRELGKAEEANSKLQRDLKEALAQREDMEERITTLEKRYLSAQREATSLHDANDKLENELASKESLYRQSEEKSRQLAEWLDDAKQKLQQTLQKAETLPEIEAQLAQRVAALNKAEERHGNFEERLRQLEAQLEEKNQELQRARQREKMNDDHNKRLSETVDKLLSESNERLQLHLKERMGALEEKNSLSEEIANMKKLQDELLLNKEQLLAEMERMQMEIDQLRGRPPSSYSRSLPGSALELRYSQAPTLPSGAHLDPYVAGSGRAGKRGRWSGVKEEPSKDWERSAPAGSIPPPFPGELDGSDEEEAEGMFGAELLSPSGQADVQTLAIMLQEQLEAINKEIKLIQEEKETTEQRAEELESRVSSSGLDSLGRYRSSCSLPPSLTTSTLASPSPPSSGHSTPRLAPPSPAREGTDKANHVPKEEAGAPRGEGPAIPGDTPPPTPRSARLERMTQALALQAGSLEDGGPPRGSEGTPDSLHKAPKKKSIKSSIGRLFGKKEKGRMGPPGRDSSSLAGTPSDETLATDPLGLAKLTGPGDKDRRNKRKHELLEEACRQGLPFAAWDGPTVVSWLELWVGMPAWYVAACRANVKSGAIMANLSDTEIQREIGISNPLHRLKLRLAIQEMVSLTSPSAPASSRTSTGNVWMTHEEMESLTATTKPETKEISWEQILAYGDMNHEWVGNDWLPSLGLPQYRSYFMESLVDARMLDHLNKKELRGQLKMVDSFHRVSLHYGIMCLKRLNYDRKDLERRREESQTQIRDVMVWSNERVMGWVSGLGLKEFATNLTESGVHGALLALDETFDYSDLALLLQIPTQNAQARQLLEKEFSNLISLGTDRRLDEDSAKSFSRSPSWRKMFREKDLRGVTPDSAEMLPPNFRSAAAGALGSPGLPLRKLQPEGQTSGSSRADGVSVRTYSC
UniProt P56282: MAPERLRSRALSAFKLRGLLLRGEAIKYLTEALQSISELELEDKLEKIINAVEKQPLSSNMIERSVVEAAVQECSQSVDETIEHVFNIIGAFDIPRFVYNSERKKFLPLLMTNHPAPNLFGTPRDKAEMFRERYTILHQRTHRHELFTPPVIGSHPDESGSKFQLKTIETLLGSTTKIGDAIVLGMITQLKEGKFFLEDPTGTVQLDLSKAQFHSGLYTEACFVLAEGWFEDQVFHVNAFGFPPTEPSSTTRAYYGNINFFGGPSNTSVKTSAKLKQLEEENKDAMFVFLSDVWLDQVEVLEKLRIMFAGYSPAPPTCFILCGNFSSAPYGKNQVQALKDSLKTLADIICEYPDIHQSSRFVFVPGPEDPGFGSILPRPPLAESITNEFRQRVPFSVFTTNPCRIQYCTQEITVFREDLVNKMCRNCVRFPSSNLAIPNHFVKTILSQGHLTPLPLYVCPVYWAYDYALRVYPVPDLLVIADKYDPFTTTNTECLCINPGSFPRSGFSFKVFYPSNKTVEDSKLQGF
UniProt Q9UKY4: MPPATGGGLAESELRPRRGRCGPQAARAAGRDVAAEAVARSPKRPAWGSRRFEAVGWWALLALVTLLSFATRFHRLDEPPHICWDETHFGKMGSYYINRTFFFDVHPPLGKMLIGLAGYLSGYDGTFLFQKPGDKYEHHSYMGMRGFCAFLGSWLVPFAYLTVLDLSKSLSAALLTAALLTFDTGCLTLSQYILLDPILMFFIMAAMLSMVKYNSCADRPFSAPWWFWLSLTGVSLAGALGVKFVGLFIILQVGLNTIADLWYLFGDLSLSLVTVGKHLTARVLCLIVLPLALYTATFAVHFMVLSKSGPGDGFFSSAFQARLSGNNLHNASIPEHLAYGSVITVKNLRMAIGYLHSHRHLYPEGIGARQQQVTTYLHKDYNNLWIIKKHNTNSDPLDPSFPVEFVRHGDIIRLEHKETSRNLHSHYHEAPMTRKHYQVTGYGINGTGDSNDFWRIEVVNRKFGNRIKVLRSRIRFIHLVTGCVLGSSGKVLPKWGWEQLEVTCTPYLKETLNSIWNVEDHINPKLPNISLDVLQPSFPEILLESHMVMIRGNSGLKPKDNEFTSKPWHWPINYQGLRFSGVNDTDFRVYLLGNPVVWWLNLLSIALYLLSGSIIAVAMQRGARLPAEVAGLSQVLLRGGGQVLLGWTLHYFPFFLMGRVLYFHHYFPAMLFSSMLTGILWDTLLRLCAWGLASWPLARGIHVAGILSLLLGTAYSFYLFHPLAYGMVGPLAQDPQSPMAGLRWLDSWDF
UniProt Q9HCU8: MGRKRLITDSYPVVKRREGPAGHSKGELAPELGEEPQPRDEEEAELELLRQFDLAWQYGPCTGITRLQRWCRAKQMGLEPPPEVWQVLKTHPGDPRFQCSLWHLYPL
UniProt Q9GZS1, whole entry, looked up: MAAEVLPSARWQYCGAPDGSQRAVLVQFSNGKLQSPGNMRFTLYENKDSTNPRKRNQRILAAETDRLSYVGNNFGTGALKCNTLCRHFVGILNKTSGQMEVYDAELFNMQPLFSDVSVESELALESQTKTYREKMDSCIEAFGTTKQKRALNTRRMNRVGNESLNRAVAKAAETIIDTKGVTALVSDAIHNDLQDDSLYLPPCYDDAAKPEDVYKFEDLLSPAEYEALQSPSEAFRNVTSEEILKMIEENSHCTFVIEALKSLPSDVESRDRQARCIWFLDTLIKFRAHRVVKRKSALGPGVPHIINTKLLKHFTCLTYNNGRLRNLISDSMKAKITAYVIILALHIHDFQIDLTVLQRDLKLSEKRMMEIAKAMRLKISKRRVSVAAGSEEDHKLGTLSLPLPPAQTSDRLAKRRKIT
UniProt Q68D20: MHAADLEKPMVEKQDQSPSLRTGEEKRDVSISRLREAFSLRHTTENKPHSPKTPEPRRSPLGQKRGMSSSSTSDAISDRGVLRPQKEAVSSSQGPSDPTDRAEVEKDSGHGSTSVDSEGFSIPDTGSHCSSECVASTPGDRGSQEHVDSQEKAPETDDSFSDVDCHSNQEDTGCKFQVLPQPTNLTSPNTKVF
UniProt Q8IY17: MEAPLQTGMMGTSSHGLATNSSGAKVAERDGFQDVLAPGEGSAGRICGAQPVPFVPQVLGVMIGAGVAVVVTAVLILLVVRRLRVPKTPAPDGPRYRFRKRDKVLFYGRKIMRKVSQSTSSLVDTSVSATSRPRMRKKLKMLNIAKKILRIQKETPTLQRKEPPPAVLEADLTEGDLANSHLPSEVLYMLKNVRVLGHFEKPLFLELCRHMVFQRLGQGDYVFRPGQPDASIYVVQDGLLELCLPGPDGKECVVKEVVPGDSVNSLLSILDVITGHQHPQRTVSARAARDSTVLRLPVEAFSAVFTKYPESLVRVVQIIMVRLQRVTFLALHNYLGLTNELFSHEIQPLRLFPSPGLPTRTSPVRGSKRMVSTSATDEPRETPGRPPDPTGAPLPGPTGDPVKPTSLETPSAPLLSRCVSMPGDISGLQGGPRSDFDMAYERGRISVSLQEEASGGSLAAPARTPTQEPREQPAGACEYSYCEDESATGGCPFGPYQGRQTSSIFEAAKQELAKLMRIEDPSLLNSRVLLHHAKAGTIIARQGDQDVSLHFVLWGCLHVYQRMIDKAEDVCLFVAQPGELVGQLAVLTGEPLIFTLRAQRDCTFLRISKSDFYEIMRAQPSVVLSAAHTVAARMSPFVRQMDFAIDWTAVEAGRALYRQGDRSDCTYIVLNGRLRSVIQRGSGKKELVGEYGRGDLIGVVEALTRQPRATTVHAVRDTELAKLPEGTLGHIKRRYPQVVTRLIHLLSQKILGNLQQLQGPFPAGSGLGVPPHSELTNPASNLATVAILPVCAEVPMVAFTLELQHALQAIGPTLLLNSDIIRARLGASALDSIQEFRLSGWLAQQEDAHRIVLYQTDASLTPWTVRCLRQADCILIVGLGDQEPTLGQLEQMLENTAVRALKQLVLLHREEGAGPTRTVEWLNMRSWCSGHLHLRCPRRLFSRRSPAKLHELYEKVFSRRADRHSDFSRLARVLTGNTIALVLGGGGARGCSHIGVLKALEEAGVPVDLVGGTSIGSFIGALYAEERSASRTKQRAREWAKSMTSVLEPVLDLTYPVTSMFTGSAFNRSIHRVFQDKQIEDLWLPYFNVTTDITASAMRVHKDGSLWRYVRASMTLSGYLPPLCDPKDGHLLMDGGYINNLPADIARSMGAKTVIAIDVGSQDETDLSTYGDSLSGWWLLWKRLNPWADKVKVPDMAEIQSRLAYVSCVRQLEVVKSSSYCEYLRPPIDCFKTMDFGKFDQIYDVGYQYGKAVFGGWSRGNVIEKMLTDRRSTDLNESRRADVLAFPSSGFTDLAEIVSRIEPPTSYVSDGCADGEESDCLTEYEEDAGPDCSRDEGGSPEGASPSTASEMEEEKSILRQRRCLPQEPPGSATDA
UniProt Q9NW61: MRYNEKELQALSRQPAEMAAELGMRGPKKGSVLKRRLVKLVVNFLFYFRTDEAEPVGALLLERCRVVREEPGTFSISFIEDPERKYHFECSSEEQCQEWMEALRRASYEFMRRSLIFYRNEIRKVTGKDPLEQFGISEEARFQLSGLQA
UniProt O00469: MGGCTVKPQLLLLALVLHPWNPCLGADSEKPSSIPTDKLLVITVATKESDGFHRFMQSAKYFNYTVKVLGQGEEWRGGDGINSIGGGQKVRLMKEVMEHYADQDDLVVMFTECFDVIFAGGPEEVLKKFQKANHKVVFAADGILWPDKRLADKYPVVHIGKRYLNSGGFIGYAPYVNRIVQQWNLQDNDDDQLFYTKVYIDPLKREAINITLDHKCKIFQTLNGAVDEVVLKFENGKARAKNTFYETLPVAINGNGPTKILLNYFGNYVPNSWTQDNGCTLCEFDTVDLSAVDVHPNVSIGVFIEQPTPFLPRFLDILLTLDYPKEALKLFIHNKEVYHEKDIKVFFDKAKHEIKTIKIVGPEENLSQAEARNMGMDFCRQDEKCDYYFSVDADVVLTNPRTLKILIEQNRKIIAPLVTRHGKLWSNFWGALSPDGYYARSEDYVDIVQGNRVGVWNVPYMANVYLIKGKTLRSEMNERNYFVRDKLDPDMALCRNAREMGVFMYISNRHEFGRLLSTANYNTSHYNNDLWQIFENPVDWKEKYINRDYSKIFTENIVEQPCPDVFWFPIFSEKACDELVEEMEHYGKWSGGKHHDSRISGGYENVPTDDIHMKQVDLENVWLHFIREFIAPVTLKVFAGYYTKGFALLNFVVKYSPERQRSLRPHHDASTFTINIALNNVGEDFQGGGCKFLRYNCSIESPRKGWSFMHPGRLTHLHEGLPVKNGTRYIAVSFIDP
UniProt Q9HBL7: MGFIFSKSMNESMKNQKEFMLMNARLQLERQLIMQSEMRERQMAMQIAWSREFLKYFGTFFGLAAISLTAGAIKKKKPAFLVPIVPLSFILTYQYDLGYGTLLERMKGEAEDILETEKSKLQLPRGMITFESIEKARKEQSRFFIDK
UniProt Q9BT43: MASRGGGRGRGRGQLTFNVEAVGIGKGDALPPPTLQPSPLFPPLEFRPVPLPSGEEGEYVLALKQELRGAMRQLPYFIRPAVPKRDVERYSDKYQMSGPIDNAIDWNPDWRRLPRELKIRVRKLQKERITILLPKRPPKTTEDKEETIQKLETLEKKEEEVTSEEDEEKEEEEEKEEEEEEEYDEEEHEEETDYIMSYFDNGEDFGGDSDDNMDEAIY

Experiments:
Experiment in all cases: log2 fold change, soluble protein after heating vs DMSO (PISA); higher = thermal stabilisation; K562 cells, 10 uM, 30 min; active = over 0.2 and 3.5 SD of the protein, either way, in both replicates (recomputed)
[1] = compound: CC1=C(C=C(C=C1)NC(=O)C2=CC(=CC=C2)C(C)(C)C#N)NC3=CC4=C(C=C3)N=CN(C4=O)C
Method in brief: (§1)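 Quantification of soluble protein used TMTpro 16plex LC-MS/MS, with channel sums equalised. Samples were the supernatant after 21,000xg for 90 min of pooled aliquots from K562 cells (2×10^6 cells/mL) treated with 10 μM compound for 30 min, heated for 3 min over 48°C-58°C, and extracted in PBS with 0.5% NP-40 at 4°C. Values, from duplicates, describe thermal stability against control samples on a log2 fold-change scale.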

[2] = compound: CC1=C(C=C(C=C1)NC(=O)C2=CC(=CC=C2)N(C)C)NC(=O)C3=CC=C(C=C3)O
Method in brief: as §1

[3] = compound: CC1=NC(=CC=C1)C2=C(N=C(N2)C(C)(C)C)C3=CC4=NC=CN=C4C=C3
Method in brief: as §1

Nexturastat A = compound: CCCCN(Cc1ccc(C(=O)NO)cc1)C(=O)Nc1ccccc1 [Nexturastat A]
Method in brief: as §1

vemurafenib = compound: CCCS(=O)(=O)Nc1ccc(F)c(C(=O)c2c[nH]c3ncc(-c4ccc(Cl)cc4)cc23)c1F [vemurafenib]
Method in brief: as §1

givinostat = compound: CCN(CC)Cc1ccc2cc(COC(=O)Nc3ccc(C(=O)NO)cc3)ccc2c1 [givinostat]
Method in brief: as §1

[4] = compound: CC1=CC=C(C=C1)SC2=C3C=C(SC3=CN=C2)C(=O)N
Method in brief: as §1

[5] = compound: CCCS(=O)(=O)Nc1ccc(F)c(C(=O)c2c[nH]c3ncc(Cl)cc23)c1F
Method in brief: as §1

[6] = compound: CCCc1cc(C)[nH]c(=O)c1CNC(=O)c1cc(-c2ccnc(N3CCN(C)CC3)c2)cc2c1cnn2C(C)C
Method in brief: as §1

barasertib = compound: CCN(CCCOc1ccc2c(Nc3cc(CC(=O)Nc4cccc(F)c4)[nH]n3)ncnc2c1)CCOP(=O)(O)O [barasertib]
Method in brief: as §1

Measured: log2 fold change

PMS2 (UniProt P54278)
inactive: [1] 0.319 | [2] 0.334 | [3] 0.039 | Nexturastat A -0.08 | vemurafenib 0.229 | givinostat 0.174

PM20D2 (UniProt Q8IYS1)
inactive: [1] 0.069 | [2] 0.007 | givinostat -0.173

PLIN2 (UniProt Q99541)
inactive: [1] 0.069 | [2] 0.018 | [4] 0.109 | [3] 0.022 | Nexturastat A 0.082 | vemurafenib 0.01 | [5] 0.042 | [6] -0.12 | givinostat -0.014 | barasertib 0.013

POLR1D (UniProt P0DPB5)
inactive: [1] -0.006 | [2] 0.083 | [4] 0.035 | [3] -0.113 | Nexturastat A 0.175 | [5] -0.517 | givinostat -0.13 | barasertib 0.314

POM121 (UniProt Q96HA1)
inactive: [1] -0.045 | [2] -0.032 | [4] -0.056 | [3] -0.074 | Nexturastat A 0.117 | vemurafenib -0.039 | [5] 0.007 | givinostat 0.119 | barasertib 0.111

POLB (UniProt P06746)
inactive: [1] 0.086 | [2] -0.211 | [4] 0.009 | Nexturastat A 0.189 | [5] 0.178 | givinostat -0.026

PPIL3 isoform 2 (UniProt Q9H2H8)
inactive: [1] 0.037 | [2] 0 | [4] -0.004 | [3] -0.112 | Nexturastat A 0.307 | vemurafenib 0.106 | [5] 0.036 | givinostat 0.042 | barasertib 0.021

POLR1B isoform 3 (UniProt Q9H9Y6)
inactive: [1] 0.027 | [2] -0.069 | [3] -0.045 | Nexturastat A 0.133 | vemurafenib 0.093 | [6] 0 | givinostat 0.026

PPIP5K2 (UniProt H0Y9S9)
inactive: [1] -0.053 | [2] 0.014 | [4] -0.084 | [3] -0.088 | Nexturastat A 0.106 | [5] 0.096 | [6] 0.029 | barasertib 0.042

PPIF (UniProt P30405)
inactive: [1] -0.006 | [2] 0.008 | [4] -0.019 | [3] -0.097 | Nexturastat A 0.001 | vemurafenib -0.028 | [5] -0.027 | [6] -0.04 | givinostat 0.046 | barasertib 0.005

POLR2L (UniProt P62875)
inactive: [1] -0.06 | [2] 0.17 | [4] 0.021 | Nexturastat A -0.043 | vemurafenib -0.117 | [5] 0.067 | [6] 0.038 | givinostat 0.067

PMPCB (UniProt O75439)
inactive: [1] 0.012 | [2] -0.063 | [4] -0.009 | [3] 0.03 | Nexturastat A -0.07 | vemurafenib 0.06 | [5] -0.019 | [6] -0.015 | givinostat -0.042 | barasertib 0.01

PPFIA3 (UniProt O75145)
inactive: Nexturastat A 0.017

POLE2 (UniProt P56282)
inactive: [2] 0.074 | [3] -0.108

POMT2 (UniProt Q9UKY4)
inactive: [2] 0.017 | [4] -0.099 | [3] -0.01 | vemurafenib 0.172 | [5] 0 | barasertib 0.133

POLD4 (UniProt Q9HCU8)
inactive: [2] -0.033 | [4] 0.034 | [3] -0.011 | [5] -0.088 | [6] -0.029 | barasertib 0.088

PORCN (UniProt Q9H237)
inactive: [2] 0.133 | vemurafenib -0.08 | givinostat -0.166

POLE (UniProt Q07864)
inactive: [2] -0.126 | barasertib 0.053

POLR1E isoform 1 (UniProt Q9GZS1)
inactive: [2] -0.086 | [4] 0.027 | vemurafenib 0.038 | [5] -0.104 | [6] 0.266

PMS2CL (UniProt Q68D20)
inactive: [2] 0.089 | Nexturastat A -0.109 | [6] 0.129

PPHLN1 (UniProt Q8NEY8)
inactive: [2] 0.064 | [4] -0.055 | [3] 0.022 | vemurafenib -0.06 | [5] -0.091 | [6] -0.092 | givinostat 0.032 | barasertib -0.033

POLR2E (UniProt P19388)
inactive: [2] -0.094 | [4] 0 | [3] -0.091 | Nexturastat A 0.005 | vemurafenib 0.031 | [5] 0.018 | [6] 0.099 | givinostat -0.007 | barasertib -0.03

PNPLA6 (UniProt Q8IY17)
inactive: [2] -0.247 | [4] 0.099 | [3] -0.017 | Nexturastat A 0.364 | vemurafenib -0.045 | [5] 0.027 | [6] 0.165 | givinostat 0.178 | barasertib 0.116

PLPPR3 isoform 3 (UniProt Q6T4P5)
inactive: [2] -0.219 | Nexturastat A 0.078

PLXNA3 (UniProt P51805)
inactive: [1] -0.051 | [3] 0.19 | Nexturastat A 0.315 | [6] -0.077 | barasertib -0.27

PPM1B isoform 2 (UniProt O75688)
inactive: [6] -0.095 | barasertib -0.053

POLG, A0A3B3IS91
inactive: [6] 0.297 | givinostat 0.07

Quoted at random: 2 records from the list, in no set order.
PLPPR3 isoform 3 (UniProt Q6T4P5)
inactive: [2] -0.219 | Nexturastat A 0.078

POLG, A0A3B3IS91
inactive: [6] 0.297 | givinostat 0.07

Next results:

PLEKHJ1 (UniProt Q9NW61)
inactive: [2] 0.065 | [4] 0.042 | Nexturastat A -0.109 | [5] 0.174

POF1B isoform 1 (UniProt Q8WVV4)
inactive: vemurafenib 0.104 | [6] 0.13 | barasertib 0.44

PLOD2 isoform 2 (UniProt O00469)
inactive: [4] -0.135 | [3] 0.07 | [5] -0.161 | [6] -0.192

POLRMT (UniProt O00411)
inactive: [1] 0.074 | [3] -0.222 | Nexturastat A 0.21 | vemurafenib 0.083

PLGRKT (UniProt Q9HBL7)
inactive: [1] -0.001 | Nexturastat A -0.096 | [6] -0.466 | givinostat 0.024 | barasertib 0.035

POLQ (UniProt O75417)
inactive: [2] -0.106 | [6] -0.155 | barasertib 0.015

POLR3GL (UniProt Q9BT43)
inactive: [1] -0.254 | [6] -0.293 | barasertib 0.125

PLXND1 (UniProt Q9Y4D7)
inactive: [2] -0.153 | [3] 0.095 | vemurafenib -0.031 | [6] 0.207 | barasertib 0.078

PPIA isoform 2 (UniProt P62937)
inactive: [2] 0.035 | [4] -0.084 | Nexturastat A -0.085 | vemurafenib 0 | [5] -0.133 | [6] -0.296 | barasertib 0.093
